These are yes or no findings as the source states them, for the method shown. Tags and fused reporters may be left off the sequences shown.
T1: Flag-DJ-1 WT (human), Q99497
T1 chain: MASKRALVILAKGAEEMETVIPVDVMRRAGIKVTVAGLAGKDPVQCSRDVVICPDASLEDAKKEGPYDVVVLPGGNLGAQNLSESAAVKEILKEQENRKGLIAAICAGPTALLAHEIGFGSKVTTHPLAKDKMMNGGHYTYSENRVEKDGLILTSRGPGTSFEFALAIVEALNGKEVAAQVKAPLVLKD

T2: Flag-DJ-1 C106A (human), Q99497
T2 chain: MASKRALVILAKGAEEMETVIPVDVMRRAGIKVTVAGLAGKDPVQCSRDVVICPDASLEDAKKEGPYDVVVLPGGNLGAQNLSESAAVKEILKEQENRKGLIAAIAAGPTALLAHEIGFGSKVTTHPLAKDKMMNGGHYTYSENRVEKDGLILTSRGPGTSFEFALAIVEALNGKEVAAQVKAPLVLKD


Assays:
[1] = target: T1, Flag-DJ-1 WT (human), Q99497; assay: non-reducing SDS-PAGE; conditions: remark: other sources report otherwise
[2] = target: T2, Flag-DJ-1 C106A (human), Q99497; assay: non-reducing SDS-PAGE; conditions: remark: other sources report otherwise

Row | binding [1] | binding [2] | Binder
1 | no binding |  | Flag-DJ-1 WT, Q99497 1-189 (protein) MASKRALVILAKGAEEMETVIPVDVMRRAGIKVTVAGLAGKDPVQCSRDVVICPDASLEDAKKEGPYDVVVLPGGNLGAQNLSESAAVKEILKEQENRKGLIAAICAGPTALLAHEIGFGSKVTTHPLAKDKMMNGGHYTYSENRVEKDGLILTSRGPGTSFEFALAIVEALNGKEVAAQVKAPLVLKD
2 |  | no binding | Flag-DJ-1 C106A, Q99497 1-189 (protein) MASKRALVILAKGAEEMETVIPVDVMRRAGIKVTVAGLAGKDPVQCSRDVVICPDASLEDAKKEGPYDVVVLPGGNLGAQNLSESAAVKEILKEQENRKGLIAAIAAGPTALLAHEIGFGSKVTTHPLAKDKMMNGGHYTYSENRVEKDGLILTSRGPGTSFEFALAIVEALNGKEVAAQVKAPLVLKD

— publication doi:10.1101/2021.01.25.428026
